# From PubChem BioAssay AID1259354 (Paczesny and Yang Labs, IUPUI and University of Michigan, 2018)
# Protein sequences, listed by entry. Tags and fused reporters are not part of them. Lines headed by an entry give the natural chain unless they say otherwise; changes in a name come on top.
# UniProt Q01638: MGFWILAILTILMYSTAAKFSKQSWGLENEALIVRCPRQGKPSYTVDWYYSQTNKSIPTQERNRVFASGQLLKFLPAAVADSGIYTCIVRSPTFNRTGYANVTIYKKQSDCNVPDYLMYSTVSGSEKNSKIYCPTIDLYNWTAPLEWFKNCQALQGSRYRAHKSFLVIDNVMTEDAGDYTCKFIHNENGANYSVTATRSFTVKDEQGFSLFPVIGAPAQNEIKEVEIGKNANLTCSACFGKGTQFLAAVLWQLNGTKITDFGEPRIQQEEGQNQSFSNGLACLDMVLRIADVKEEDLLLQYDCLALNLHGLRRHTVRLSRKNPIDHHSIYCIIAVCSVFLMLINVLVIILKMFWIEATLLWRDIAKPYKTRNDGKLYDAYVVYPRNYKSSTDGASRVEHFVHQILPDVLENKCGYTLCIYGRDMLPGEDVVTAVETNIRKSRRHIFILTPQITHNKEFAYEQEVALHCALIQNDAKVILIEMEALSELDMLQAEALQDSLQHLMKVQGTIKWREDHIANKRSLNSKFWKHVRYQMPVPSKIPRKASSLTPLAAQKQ
# About 1,800 (2.3%) of roughly 78,000 compounds were called active. Inconclusive results, whose numbers are uncertain, are shown with a selection of clear calls. No stated cut-off is given here; in the data, active means inhibition above about 30%; inconclusive means mostly about 10% to 28%; inactive means weaker than that.
# Target: Interleukin-1 receptor-like 1 (Homo sapiens) (UniProt Q01638)
# Test: blocks human ST2 binding to IL-33, primary screen, biochemical, AlphaLISA (AID 1259354)
# Conditions: AlphaLISA ST2-Fc/biotin-IL-33 interaction, 1 h; at 17 µM, active compounds read high
row,SMILES,inhibition
1,O=C(c1cn[nH]n1)N1CCC(Nc2ccccn2)CC1,inactive
2,N#Cc1nc(COc2ccc(Br)cc2)oc1N1CCCCC1,active: 64%
3,Cc1c(N=Cc2ccccc2Cl)c(=O)n(-c2ccccc2)n1C,inconclusive: 15%
4,C/C=C(\C)c1cc(OC)c(C)c2c1Oc1c(CO)c(O)cc(/C(C)=C/C(=O)O)c1C(=O)O2,inactive
5,CC(C)(C)SCCn1cc(C2CC=CCC2)nn1 (stereo not given),inconclusive: 19%
6,COc1ccccc1N1CCN(CCCCNC(=O)c2ccc3ccccc3c2)CC1,inconclusive: 13%
7,CCOc1ccccc1CN1CCN(c2ccc([N+](=O)[O-])cc2)CC1,inconclusive: 20%
8,COc1cc(/C=C2\SC(c3ccc(C)cc3)=NC2=O)cc(OC)c1O,active: 80%
9,O=c1c2cnn(-c3ccccc3)c2nc(-c2cccs2)n1-c1ccc(F)cc1,inactive
10,CCC(C)(C)C(=O)NCc1cccnc1,inactive
11,CCc1ccc(-n2c(-c3ccco3)nc3c(cnn3-c3ccc(F)cc3)c2=O)cc1,inconclusive: 20%
12,Cn1nc(-c2ccc(Cl)c(Cl)c2)nc2c(=O)n(C)c(=O)nc1-2,inconclusive: 16%
13,COc1ccc(C(=O)Nc2ccc(-c3nc4cc(C)ccc4o3)c(O)c2)cc1Cl,active: 30%
14,Cn1c(=O)[nH]c(=O)c2c1nc(NCc1ccccc1)n2Cc1ccc(Cl)cc1,inactive
15,CC(O)(COc1ccccc1)c1ccc2c(c1)CN(Cc1ccccn1)CCO2 (stereo not given),inconclusive: 11%
16,O=C(CC1SC(=Nc2ccccc2)N(S(=O)(=O)c2ccccc2)C1=O)Nc1ccccc1 (stereo not given),inactive
17,Fc1ccc(C2(c3noc(Cc4ccc5c(c4)OCO5)n3)CCOC2)cc1 (stereo not given),inconclusive: 29%
18,CCn1ccc(CN2CC[C@@H](c3ccc(F)cc3)[C@H](O)C2)n1,inactive
19,COc1cccc(C(=O)Nc2ccc(Cl)c(N3CCCS3(=O)=O)c2)c1,inactive
20,Cc1cc(=O)[nH]c(NCCNC2CCC3(CCNCC3)CC2)n1,inactive

row,SMILES,inhibition
1,CC(C)(C)c1ccc(S(=O)(=O)N=C2C=CC(=O)c3ccccc32)cc1,active: 44%
2,Cc1sc(NC(=O)COc2ccc([N+](=O)[O-])cc2)c(C(N)=O)c1C,inconclusive: 23%
3,O=c1oc2ccc(Cl)cc2nc1C=C(O)c1ccc(Br)cc1,inactive
4,CCCC1COCCN1Cc1cc(F)c(O)c(OC)c1 (stereo not given),inconclusive: 11%
5,COC(=O)c1ccc(C(=O)Nc2nc3c(s2)CCCC3)cc1,inconclusive: 21%
6,O=C(c1ccccc1)N1CCN(c2ccc([N+](=O)[O-])cc2Cl)CC1,inconclusive: 21%
7,Cc1cc(Cl)ccc1N=Cc1nc(-c2ccccc2)oc1O,inconclusive: 12%
8,COc1cc(OC)cc(-n2c(=O)c3sccc3n(Cc3cc(=O)n4c(C)cccc4n3)c2=O)c1,inconclusive: 17%
9,CCc1noc(CN(CC)C(=O)CN2CCOc3ccccc3C2)n1,inactive
10,O[C@@H]1C[C@@H](c2nc(-c3ccc(OC(F)(F)F)cc3)no2)N(Cc2cc3ccccc3o2)C1,inconclusive: 11%
11,CC(C)(C)n1nc2c(c1NC(=O)c1ccco1)CS(=O)C2 (stereo not given),inconclusive: 10%
12,COc1cccc(COC2CN(C(=O)Cc3cccs3)CC(=O)N(Cc3ccccn3)C2)c1 (stereo not given),inconclusive: 24%
13,N#COc1ccc(Nc2ccc(OC#N)cc2)cc1,inconclusive: 17%
14,Cc1ccc(C2NC(=O)NC3=C2C(=O)CC(C)(C)C3)cc1 (stereo not given),inconclusive: 12%
15,O=C(C[C@@H]1O[C@H](CNC(=O)c2cccs2)[C@@H](O)[C@H]1O)NCc1ccccc1,inconclusive: 15%
16,O=[N+]([O-])c1cc2c(cc1C=Nc1ccc(-c3nc4ccccc4o3)c(O)c1)OCO2,inactive
17,O=C(Nc1ccc(Oc2ccccc2)cc1)N[C@H]1CO[C@H]2[C@@H]1OC[C@@H]2n1nnnc1-c1ccccc1,inconclusive: 19%
18,CN(CCCc1nccn1C)c1nc(-c2ccncc2)nc2c1CCNC2,inconclusive: 13%
19,CC(=O)n1cc(C(C[N+](=O)[O-])SCc2ccccc2)c2ccccc21 (stereo not given),active: 41%
20,O=C(NC1CCN(C(=O)c2ccncc2)CC1)C1CC2(CCNCC2)CN1 (stereo not given),inactive

# Given bar-delimited: entries from further up.
row | SMILES | inhibition
4 | CCCC1COCCN1Cc1cc(F)c(O)c(OC)c1 (stereo not given) | inconclusive: 11%
5 | COC(=O)c1ccc(C(=O)Nc2nc3c(s2)CCCC3)cc1 | inconclusive: 21%
6 | O=C(c1ccccc1)N1CCN(c2ccc([N+](=O)[O-])cc2Cl)CC1 | inconclusive: 21%
7 | Cc1cc(Cl)ccc1N=Cc1nc(-c2ccccc2)oc1O | inconclusive: 12%
8 | COc1cc(OC)cc(-n2c(=O)c3sccc3n(Cc3cc(=O)n4c(C)cccc4n3)c2=O)c1 | inconclusive: 17%

# Following part:

row,SMILES,inhibition
1,Cc1ccccc1N1C(=O)c2ccccc2NC1c1ccc2c(c1)OCO2 (stereo not given),inactive
2,O=S(=O)(N1CCCC1)N1CCN(c2cc(C3CCNCC3)ncn2)CC1,inactive
3,Brc1ccc2nc(-c3ccco3)c(Nc3ccccc3)n2c1,inconclusive: 14%
4,O=C1CCC(C(=O)N2CCSCC2)CN1Cc1ccccn1 (stereo not given),inactive
5,COCC(C)NC(=O)c1cnn2c1NC(c1ccccc1)CC2C(F)(F)F (stereo not given),inactive
6,CCN(CC)[C@H]1[C@@H]2OC[C@@H](O2)[C@@H](NC(=O)Nc2ccc(F)cc2)[C@@H]1O,inconclusive: 23%
7,Cn1c(C(=O)NCc2ccccc2Cl)cc2sc(Cl)cc21,inconclusive: 11%
8,Cc1ccc(CN2CCC(CN(C)Cc3c(C)nc4sccn34)CC2)o1,inactive
9,Cc1ccc(C2CC(=O)C3=C(C2)Nc2ccccc2NC3c2ccc(F)cc2)cc1 (stereo not given),inconclusive: 26%
10,CCCc1nc(C(=O)N2CCN(C)C3(CCN(C)CC3)C2)cs1,inconclusive: 21%
11,CCn1cc(C(=O)NCCCOC(C)C)c(=O)c2cc(S(=O)(=O)N3CCC(C)CC3)ccc21,inconclusive: 11%
12,CNc1ncccc1C(=O)NCC1CCN(Cc2cnc(C)[nH]2)C1 (stereo not given),inconclusive: 10%
13,CCOc1ccc(-c2csc(NC(=O)c3ccc(OC)c(OC)c3)n2)cc1,inactive
14,O=C(c1ccc(Cl)cc1)N1CCN(c2ccc([N+](=O)[O-])c(N3CCOCC3)c2)CC1,inactive
15,CN(C)c1cc(NC(=O)CN2CCN(C(=O)c3ccccc3)CC2)c2ccccc2n1,inactive
16,CC(=O)Nc1ccc(Cl)c(C(=O)N(C)Cc2ncc(C)[nH]2)c1,inconclusive: 17%
17,OC1CCCN(c2ccnc(N3CCC(O)(Cc4ccccc4)CC3)n2)C1 (stereo not given),inactive
18,O=C(c1cc(-c2ccco2)on1)N1CCc2ccccc2C1,inconclusive: 12%
19,CC1=CCC(C(=O)O)(C(=O)n2nc(C)cc2C)C(c2ccc([N+](=O)[O-])cc2)C1 (stereo not given),inconclusive: 26%
20,COc1ccccc1C(=O)NCCn1cc(SCC(=O)Nc2ccc(F)cc2)c2ccccc21,inactive
